The supplement of paper PMC9744312
Structures can show the parent of a compound that is named as a salt. The list shows a part of the results. Single values of this set are uncertain.

Test system: Peyronie's disease tunica albuginea primary fibroblasts
Test: cell viability (DRAQ5 nuclear stain) relative to TGF-beta1-only control; higher = more viable cells
Conditions: 10 µM; TGF-beta1 10 ng/mL; 72 h

| Structure (SMILES) | cell viability [%] |
| --- | --- |
| CC(COc1ccccc1Cc1ccccc1)N1CCCCC1 (stereo not drawn) [Benproperine phosphate] | 101 |
| CC(O)(P(=O)(O)O)P(=O)(O)O [Etidronate] | 91.6 |
| C[C@]1(COc2ccc(N3CCC(Oc4ccc(OC(F)(F)F)cc4)CC3)cc2)Cn2cc([N+](=O)[O-])nc2O1 [Delamanid] | 93.2 |
| CCN(CC)CCOc1ccc(C(=C(Cl)c2ccccc2)c2ccccc2)cc1 [Clomifene citrate] | 74.8 |
| C=C[C@@H]1C[C@]1(NC(=O)[C@@H]1C[C@@H]2CN1C(=O)[C@H](C(C)(C)C)NC(=O)O[C@@H]1C[C@H]1CCCCCc1nc3ccc(OC)cc3nc1O2)C(=O)NS(=O)(=O)C1CC1 [Grazoprevir] | 99.4 |
| CCCCCOC(=O)Nc1nc(=O)n([C@@H]2O[C@H](C)[C@@H](O)[C@H]2O)cc1F [Capecitabine] | 70.8 |
| CC(C)=CCC/C(C)=C/CC/C(C)=C/CSc1ccccc1C(=O)O [Salirasib] | 96.2 |
| CCCCNc1ccc(C(=O)OCCN(C)C)cc1 [Tetracaine HCl] | 87.3 |
| CCCCC(=O)N(Cc1ccc(-c2ccccc2-c2nn[nH]n2)cc1)C(C(=O)O)C(C)C.CCOC(=O)C(C)CC(Cc1ccc(-c2ccccc2)cc1)NC(=O)CCC(=O)O (stereo not drawn) [Sacubitril/valsartan (LCZ696)] | 94.1 |
| CN1CCOC(c2ccccc2)c2ccccc2C1 (stereo not drawn) [Nefopam HCl] | 90.8 |
| C[C@H](CSC(=O)c1ccccc1)C(=O)N1C[C@@H](Sc2ccccc2)C[C@H]1C(=O)O [Zofenopril calcium] | 93.2 |
| COc1ncc(-c2ccc3nccc(-c4ccnnc4)c3c2)cc1NS(=O)(=O)c1ccc(F)cc1F | 53.8 |
| CN1CCC(=C2c3ccccc3CCc3sccc32)CC1 [Pizotifen Malate] | 81.6 |
| CCc1cc(C(N)=S)ccn1 [Ethionamide] | 93.2 |
| CC(=O)Nc1c(I)c(NC(C)=O)c(I)c(C(=O)O)c1I [Diatrizoate sodium] | 93.9 |
| CCOc1cc2ncc(C#N)c(Nc3ccc(OCc4ccccn4)c(Cl)c3)c2cc1NC(=O)/C=C/CN(C)C [Neratinib (HKI-272)] | 71.7 |
| O=C(N/N=C/c1ccc([N+](=O)[O-])o1)c1ccc(O)cc1 [Nifuroxazide] | 99.8 |
| CC(C)=CCC/C(C)=C/CC/C(C)=C/CCC(=O)OC/C=C(\C)CCC=C(C)C [Gefarnate] | 87.4 |
| NC(=O)c1ncn([C@@H]2O[C@H](CO)[C@@H](O)[C@H]2O)c1O [Mizoribine] | 83.6 |
| Cc1cn([C@@H]2C[C@@H](O)[C@H](CO)O2)c(=O)[nH]c1=O [Telbivudine] | 99.7 |
| CC(C)(O/N=C(\C(=O)N[C@@H]1C(=O)N2C(C(=O)[O-])=C(C[n+]3ccccc3)CS[C@H]12)c1csc(N)n1)C(=O)O [Ceftazidime] | 80.9 |
| CC(C)(O/N=C(\C(=O)N[C@@H]1C(=O)N2C(C(=O)[O-])=C(C[n+]3ccccc3)CS[C@H]12)c1csc(N)n1)C(=O)O [Ceftazidime Pentahydrate] | 91.6 |
| CNCCC=C1c2ccccc2CCc2ccccc21 [Nortriptyline hydrochloride] | 75.9 |

| Structure (SMILES) | cell viability [%] |
| --- | --- |
| CS(=O)(=O)Nc1ccc([N+](=O)[O-])cc1Oc1ccccc1 [Nimesulide] | 99.1 |
| CCn1cc(C(=O)O)c(=O)c2cc(F)c(N3CCNC(C)C3)c(F)c21 (stereo not drawn) [Lomefloxacin HCl] | 92.9 |
| CCn1cc(C(=O)O)c(=O)c2cc(F)c(N3CCNC(C)C3)c(F)c21 (stereo not drawn) [Lomefloxacin] | 88 |
| CC(C)CN(C[C@@H](O)[C@H](Cc1ccccc1)NC(=O)O[C@H]1CCOC1)S(=O)(=O)c1ccc(N)cc1 [Amprenavir] | 96.8 |
| CCC1=C[C@@H]2CN(C1)Cc1c([nH]c3ccccc13)[C@@](C(=O)OC)(c1cc3c(cc1OC)N(C)[C@H]1[C@@](O)(C(=O)OC)[C@H](OC(C)=O)[C@]4(CC)C=CCN5CC[C@]31[C@@H]54)C2 [Vinorelbine Tartrate] | 74.8 |
| OCc1ccccc1 [Benzyl alcohol] | 99.2 |
| CNC(=C[N+](=O)[O-])NCCSCc1csc(CN(C)C)n1 [Nizatidine] | 91.8 |
| CC1(C)[C@@H](O[C@H]2O[C@H](C(=O)O)[C@@H](O)[C@H](O)[C@H]2O[C@@H]2O[C@H](C(=O)O)[C@@H](O)[C@H](O)[C@H]2O)CC[C@]2(C)[C@H]3C(=O)C=C4[C@@H]5C[C@@](C)(C(=O)O)CC[C@]5(C)CC[C@@]4(C)[C@]3(C)CC[C@@H]12 [Ammonium Glycyrrhizinate] | 93.9 |
| C[C@]12C=CC(=O)C=C1CC[C@@H]1[C@@H]2C(=O)C[C@@]2(C)[C@H]1CC[C@]2(O)C(=O)CO [Prednisone] | 96.3 |
| CCOC(=O)CCC(=O)O[C@H]1[C@H](O[C@@H]2[C@@H](C)[C@H](O[C@H]3C[C@@](C)(OC)[C@@H](O)[C@H](C)O3)[C@@H](C)C(=O)O[C@H](CC)[C@@](C)(O)[C@H](O)[C@@H](C)C(=O)[C@H](C)C[C@@]2(C)O)O[C@H](C)C[C@@H]1N(C)C [Erythromycin Ethylsuccinate] | 84.8 |
| C[C@@H]1CN(c2c(F)c(N)c3c(=O)c(C(=O)O)cn(C4CC4)c3c2F)C[C@H](C)N1 [Sparfloxacin] | 88.9 |
| C[C@@H]1O[C@@H]1P(=O)(O)O [Fosfomycin Tromethamine] | 87.1 |
| C[C@@H]1O[C@@H]1P(=O)(O)O [Fosfomycin Disodium] | 93.2 |
| NC(=O)c1ncn([C@@H]2O[C@H](CO)[C@@H](O)[C@H]2O)c1N [AICAR (Acadesine)] | 91.2 |
| CCC(=O)O[C@H]1[C@H](O[C@@H]2[C@@H](C)[C@H](O[C@H]3C[C@@](C)(OC)[C@@H](O)[C@H](C)O3)[C@@H](C)C(=O)O[C@H](CC)[C@@](C)(O)[C@H](O)[C@@H](C)C(=O)[C@H](C)C[C@@]2(C)O)O[C@H](C)C[C@@H]1N(C)C [Erythromycin estolate] | 55.5 |
| CC(c1cc2ccccc2s1)N(O)C(N)=O (stereo not drawn) [Zileuton] | 70.4 |
| COc1cc(C)c(/C=C/C(C)=C/C=C/C(C)=C/C(=O)O)c(C)c1C [Acitretin] | 74.3 |
| CC(C)OC(=O)CCC/C=C\C[C@@H]1[C@@H](CC[C@@H](O)CCc2ccccc2)[C@H](O)C[C@@H]1O [Latanoprost] | 83.3 |
| CN(C)CCC=C1c2ccccc2C=Cc2ccccc21 [Cyclobenzaprine HCl] | 91.4 |
| CN(C)CCc1c[nH]c2ccc(C[C@H]3COC(=O)N3)cc12 [Zolmitriptan] | 100 |
| C[N+]1(C)CCC(=C(c2ccccc2)c2ccccc2)CC1 [Diphemanil Methylsulfate] | 93.4 |
| CNNCc1ccc(C(=O)NC(C)C)cc1 [Procarbazine HCl] | 99.1 |
| O=c1[nH]c(=O)n([C@H]2C[C@H](O)[C@@H](CO)O2)cc1F [Floxuridine] | 70.8 |

| Structure (SMILES) | cell viability [%] |
| --- | --- |
| Oc1ccc(O)cc1 [Hydroquinone] | 89.1 |
| COc1cc2nc(N3CCN(C(=O)C4CCCO4)CC3)nc(N)c2cc1OC (stereo not drawn) [Terazosin HCl] | 86.1 |
| COc1cc2nc(N3CCN(C(=O)C4CCCO4)CC3)nc(N)c2cc1OC (stereo not drawn) [Terazosin HCl Dihydrate] | 86.2 |
| NC(=O)[C@@H]1CC[C@@H]2CN1C(=O)N2OS(=O)(=O)O [Avibactam sodium] | 96.9 |
| Nc1ccn(C[C@@H](CO)OCP(=O)(O)O)c(=O)n1 [Cidofovir] | 87.7 |
| FC(F)(F)c1ccc(/C=C/c2nc(COc3ccc(CCCCn4ccnn4)cc3)co2)cc1 [Mubritinib (TAK 165)] | 119 |
| CN(C)CCCOc1nn(Cc2ccccc2)c2ccccc12 [Benzydamine HCl] | 95.8 |
| O=C(O)COc1nn(Cc2ccccc2)c2ccccc12 [Bendazac] | 91.3 |
| OC[C@@H](O)[C@@H](O)[C@H](O)[C@@H](O)CO [Sorbitol] | 95.8 |
| CC(=O)OCC(=O)[C@@]1(O)CC[C@H]2[C@@H]3CCC4=CC(=O)CC[C@]4(C)[C@H]3C(=O)C[C@@]21C [Cortisone acetate] | 88 |
| CCCCC(=O)O[C@]1(C(=O)CO)[C@@H](C)C[C@H]2[C@@H]3CCC4=CC(=O)C=C[C@]4(C)[C@@]3(F)[C@@H](O)C[C@@]21C [Betamethasone Valerate] | 80.4 |
| O=C(Nc1cc(Cl)cc(Cl)c1O)c1c(O)c(Cl)cc(Cl)c1Cl [Oxyclozanide] | 88.8 |
| O=C(O)Cc1ccccc1Nc1c(Cl)cccc1Cl [Diclofenac Diethylamine] | 92.7 |
| O=C(O)Cc1ccccc1Nc1c(Cl)cccc1Cl [Diclofenac Sodium] | 81.1 |
| O=C(O)Cc1ccccc1Nc1c(Cl)cccc1Cl [Diclofenac Potassium] | 92.7 |
| C[C@@H]1CC(=O)NN=C1c1ccc(NN=C(C#N)C#N)cc1 [Levosimendan] | 88.3 |
| CNC(=O)c1ccc2cc([C@@]3(O)CCn4cncc43)ccc2c1 [TAK-700 (Orteronel)] | 64 |
| CC(=O)Oc1cc(C(F)(F)F)ccc1C(=O)O [Triflusal] | 95.3 |
| CS(=O)(=O)c1ccc([C@@H](O)[C@@H](CO)NC(=O)C(Cl)Cl)cc1 [Thiamphenicol] | 91.6 |
| CO/N=C(\C(=O)N[C@@H]1C(=O)N2C(C(=O)[O-])=C(C[n+]3ccn4ncccc43)CS[C@H]12)c1nsc(N)n1 [Cefozopran hydrochloride] | 73.4 |
| Cc1cncc(CN2CCC(=C3c4ccc(Cl)cc4CCc4cccnc43)CC2)c1 [Rupatadine Fumarate] | 98.5 |
| O=c1[nH]cc(F)c(=O)[nH]1 [Fluorouracil (5-Fluoracil, 5-FU)] | 68.1 |

Single entries from the list:
cell viability [%] with O=C(N/N=C/c1ccc([N+](=O)[O-])o1)c1ccc(O)cc1 [Nifuroxazide] is entered as 99.8
cell viability [%] with CN(C)CCC=C1c2ccccc2C=Cc2ccccc21 [Cyclobenzaprine HCl] is entered as 91.4
cell viability [%] with CS(=O)(=O)Nc1ccc([N+](=O)[O-])cc1Oc1ccccc1 [Nimesulide] is entered as 99.1
cell viability [%] with COc1cc2nc(N3CCN(C(=O)C4CCCO4)CC3)nc(N)c2cc1OC (stereo not drawn) [Terazosin HCl] is entered as 86.1
cell viability [%] with CCn1cc(C(=O)O)c(=O)c2cc(F)c(N3CCNC(C)C3)c(F)c21 (stereo not drawn) [Lomefloxacin HCl] is entered as 92.9
